This is an account of results in patent US20200247851A1, “Methods For Generating Epitopes For Binding To Recognition Molecules By Templated Assembly” (TriBiotica LLC, priority 2017, published 2020).

Construct, isoform or probe ends are uncertain for at least one entry. Negatives hold for the conditions tested.

The series has as its system biotinylated anti-BRD7 Fab (murine IgG1 isotype) (Mus musculus). The series can be described thus: pull-down. The conditions noted are these: PBSM; purified native protein; protein details: biotinylated, ThermoFisher; single-stranded DNA.

Regarding “GCAAAGACATCTGGACACGCCACTTATAGTCTACGTGAAGCACTGCGCTGGAACAGCCTAAAAAAGGAGAAGGAGACTTAGAGGC [#136 unselected Right-aptamer]”, the binding result is “no binding”.
